The labels stand for the following.
B1: RESA (protein, UniProt Q8I0U6 1-1085)
chain: MRPFHAYSWIFSQQYMDTKNVKEKNPTIYSFDDEEKRNENKSFLKVLCSKRGVLPIIGILYIILNGNLGYNGSSSSGVQFTDRCSRNLYGETLPVNPYADSENPIVVSQVFGLPFEKPTFTLESPPDIDHTNILGFNEKFMTDVNRYRYSNNYEAIPHISEFNPLIVDKVLFDYNEKVDNLGRSGGDIIKKMQTLWDEIMDINKRKYDSLKEKLQKTYSQYKVQYDMPKEAYESKWTQCIKLIDQGGENLEERLNSQFKNWYRQKYLNLEEYRRLTVLNQIAWKALSNQIQYSCRKIMNSDISSFKHINELKSLEHRAAKAAEAEMKKRAQKPKKKKSRRGWLCCGGGDIETVEPQQEEPVQTVQEQQVNEYGDILPSLRASITNSAINYYDTVKDGVYLDHETSDALYTDEDLLFDLEKQKYMDMLDTSEEESVKENEEEHTVDDEHVEEHTADDEHVEEPTVADDEHVEEPTVADEHVEEPTVAEEHVEEPTVAEEHVEEPASDVQQTSEAAPTIEIPDTLYYDILGVGVNADMNEITERYFKLAENYYPYQRSGSTVFHNFRKVNEAYQVLGDIDKKRWYNKYGYDGIKQVNFMNPSIFYLLSSLEKFKDFTGTPQIVTLLRFFFEKRLSMNDLENKSEHLLKFMEQYQKEREAHVSEYLLNILQPCIAGDSKWNVPIITKLEGLKGSRFDIPILESLRWIFKHVAKTHLKKSSKSAKKLQQRTQANKQELANINNNLMSTLKEYVGSSEQMNSITYNFENINSNVDNGNQSKNISDLSYTDQKEILEKIVSYIVDISLYDIENTALNAAEQLLSDNSVDEKTLKKRAQSLKKLSSIMERYAGGKRNDKKAKKYDTQDVVGYIMHGISTINKEMKNQNENVPEHVQHNAEANVEHDAEENVEHDAEENVEENVEENVEENVEENVEENVEENVEENVEENVEENVEENVEENVEENVEENVEENVEEYDEENVEEVEENVEEYDEENVEEVEENVEENVEENVEENVEEYDEENVEEVEENVEENVEENVEENVEENVEEVEENVEENVEENVEENVEENVEENVEEYDEENVEEHNEEYDE
B2: AP-1/2β (protein, UniProt Q8I3I6 1-929)
chain: MSDLRYFQTTKKGEIHELKEELHSSHKEKKKEAIKKIIAAMTVGKDVSTLFSDVVNCMQTSNIELKKLVYLYVINYAKVQPELAILAVNTFRKDSSDPNPLIRALAIRTMGCIRLEQITEYLIEPLRRCLKDEDPYVRKTAVICIAKLYDISPKLVEEEGFIDTLLDILDDNNAMVVANAVISLTDICENSNKSILKDVINKDENNVNKLLNAINECVEWGQVFILDALVLYEPKTSKDAERVLERILPRLSHANSAVVLSSIKVILCLLDKINDKEFIKNVHKKLSPSLVTLLSAEPEIQYIALRNINLITQKLPNMLSDKINMFFCKYNEPAYVKMEKLDIIIRLVSDKNVDLVLYELKEYSTEVDVEFVKKSVRAIGSCAIKLPQSSEKCINILLDLIDTKINYVIQECIVVIKDIFRKYPNKYESIITILCENLESLDESNAKASLIWIIGEYVERIDNADELIDSFLENFSDEPYNVQLQILTASVKLFLKCSKNTKDIITKVLKLSTEESDNPDLRDRAYIYWRLLSKNIDVAKKIVLADKPPIQEENKITDTKVLNKLIKNISMLSSVYHKLPETFISKKNSYSLNSDNNNDHMQDDHYDDDDYDKDNHVLKIKKQMDKQKYDSYSSDNKKSNHSKSSSDSYNNSSDEFNNDIDDADDSKKSMDLIGLNDDESKPQKTIPPVKMVQVLSSEDAGLKGQTGLSIFASINRIDRKIQLKISVTNQTQNEIVVSGVQINKNSFGLSSPNNLDVQNIGFGETKEMLIYLIPNTLNSNTPPATPLFLQVAIRTNLDIFYFNVPYDIFVVFVENFHMEKDIFKKKWQIIEEAKESILMAVSPMVITSDMLIKRMKIFNISLIARRNVNNMELYYFACITTNNLVILSEVTIQPEKKNVKLCIRTDSSSVIPLYKLLFVKAFSLSVTQT
B3: AP-2σ (protein, UniProt O96254 1-141)
chain: MLNFILLQNRQGKTRFSKWYINCNEKKQKKIERDINKILINRSRSYANIFVYENFKIVYRLYAGLYFVVCIENENELYILEFIHFMAQLLDTFFTNVCELDLLFNFHFLYYFFDNIILGGYIYEINRNIILDKINKIKKLI

No constants are given. Whether binding was seen depends on the method and setting. Binding seen in cells or lysates may run through a third protein. Here binding means that the protein was enriched with, or labelled near, the bait; the list need not be complete. A no says only that the protein was not detected with the bait.

The experiment addresses CHC-2xFKBP-GFP (Plasmodium falciparum (3D7)) (UniProt Q8I5L6). Briefly: affinity purification with mass spectrometry.
As for AP-2α (from UniProt C6KT12 1-1236), the binding entry is recorded as “no binding”.
The entry for Sortilin (from UniProt Q8IKV8 1-895) is “binds”; for B1 it is “binds”.
The value for B2 was “binds”; that for B3 was “no binding”.

Source of the values: publication doi:10.1101/621078.
